The assay can be described thus: qHTS Assay to Find Inhibitors of Chronic Active B-Cell Receptor Signaling. To be noted: ABC-DLBCL IkBa-CBG/CBR reporter, luminescence ratio (green luciferase fused to IkBa over red control in TMD8 lymphoma cells), 4 h. The procedure, abridged: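 Doxycycline induced both beetle luciferases in TMD8 lymphoma cells; IKK-driven degradation limits the IkappaBalpha-fused green signal, while red luminescence normalises for cell number and nonspecific effects. Compounds tested up to 46 uM, 4 hrs.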
(In qHTS, concentration-response curves come from the screen itself.)

Where [1] appears, read: measured here: CBR red luminescence, cell number.
Where [2] appears, read: measured here: IkBa-CBG green luminescence.

The other results are listed elsewhere or left out. Shown are side measurements of this screen, not its main read-out; they come without a call. The list favours compounds with an active or inconclusive main result. Words in brackets tell the shape of the fitted curve; partial curves, single points and poor fits give uncertain potencies.

In the case of `COC(=O)c1c(N)sc2c1CCN(c1ncc(C(F)(F)F)cc1Cl)C2`, under setting [1], the AC50 was 16.4 µM [rising, partial curve].

As to `CN1CCN(c2ccc(Cl)cc2NC(=O)/C=C/c2cccc(F)c2)CC1`, the AC50 under setting [1] was 14.1 µM [falling, partial curve].

`Oc1cccc(/C=N/Nc2ccc(Cl)nn2)c1O`: the half-maximal activity concentration (AC50) under setting [1] was 10 µM [falling, partial curve] and the AC50 under setting [2] was 0.398 µM [falling, partial curve, poor fit].

Turning to `O=C(CSc1ccc(-c2ccco2)nn1)c1ccccc1`, the AC50 under setting [1] was 29.1 µM [falling, single point].

With `Cc1cc(N2CCCN(C)CC2)nc2cc(Cl)ccc12`, the AC50 under setting [1] is 20 µM [falling, single point].

In the case of `CCn1c(C)nc2cc(C(=O)OC)ccc21`, the AC50 under setting [1] was 14.1 µM [rising, partial curve, poor fit].

On to `CCOC(=O)c1c(NC(=O)C(C)Sc2nnc(C)c(=O)[nH]2)sc2c1CCCC2` (stereo unspecified), for which the AC50 under setting [1] was 5.01 µM [falling, full curve].

With `O=C(Nc1ccc(S(=O)(=O)NCCc2ccccc2)cc1)c1ccc(Br)o1`, the AC50 under setting [1] was 29.1 µM [rising, single point].

With `Cc1ccc2[nH]nc(C(=O)N3CCCC(C(=O)c4ccc(Cl)cc4)C3)c2c1` (stereo unspecified), the AC50 under setting [1] is 35.5 µM [falling, single point].

With `O=C(Nc1nc(=O)c2ccccc2s1)c1ccc(F)cc1`, the AC50 is 2.59 µM [falling, full curve] under setting [1] and 16.4 µM [rising, single point] under setting [2].

As to `COc1ccccc1NC(=O)CC1COc2ccccc2O1` (stereo unspecified), the AC50 under setting [1] is 10 µM [falling, partial curve].

Regarding `COc1ccc(O)c(/C=c2/sc3nc4cc(C)c(C)cc4n3c2=O)c1`, under setting [1], the AC50 is 35.5 µM [falling, partial curve, poor fit].

On to `CCOC(=O)Cc1csc(NC(NC(=O)CC)(C(F)(F)F)C(F)(F)F)n1`, for which, under setting [1], the AC50 was 15.8 µM [falling, single point].

Consider `O=C1c2sc3nc4ccccc4n3c2C(=O)N1c1ccccc1Cl`, for which the AC50 under setting [1] is 4.11 µM [falling, partial curve].

Take `CCOc1cc(/C=C(\CC(=O)O)c2nc3ccccc3s2)ccc1OC`: the AC50 under setting [1] is 3.16 µM [rising, partial curve, poor fit].

Turning to `CSCCC(NC(N)=O)C(=O)NCc1ccccc1Cl` (stereo unspecified), the AC50 under setting [1] is 29.1 µM [falling, single point].

As to `Cc1ccc(C)c(CN2CCC(CNC(=O)Nc3ccc(Cl)cc3)CC2)c1`, the AC50 under setting [1] is 7.94 µM [rising, partial curve, poor fit].

`Cc1cccc(-n2cc(-c3ccccc3)c3c(N4CCOCC4)ncnc32)c1`: the AC50 under setting [1] was 1.12 µM [rising, full curve, poor fit].

For `CSc1nnc(-c2ccc(S(=O)(=O)N3CCOCC3)cc2)n1CC1CCCO1` (stereo unspecified), the AC50 under setting [1] is 23.1 µM [rising, single point] and the AC50 under setting [2] was 32.6 µM [falling, partial curve, poor fit].

`COc1ccccc1/C=C/C=N/NC(=O)c1cccs1`: under setting [1], the AC50 is 0.447 µM [falling, full curve, poor fit].

Consider `c1ccc(CCn2nnnc2CN2CCN(C3CCCC3)CC2)cc1`, for which the AC50 under setting [1] was 6.51 µM [falling, single point].

In the case of `COc1ccc(NC(=O)CCCSc2nc(-c3ccco3)cc(C(F)(F)F)n2)cc1OC`, the AC50 under setting [1] is 0.517 µM [rising, full curve, poor fit].

For `Cn1c(=O)c2c(nc(SCCNS(=O)(=O)c3ccccc3)n2C)n(C)c1=O`, the AC50 under setting [1] was 7.94 µM [falling, partial curve, poor fit].

In the case of `CSc1ccc(/C=C/C(=O)c2ccc(NC(C)=O)cc2)cc1`, under setting [1], the AC50 is 20.6 µM [falling, single point].

As for `O=C(O)CC1S/C(=N/N=C/c2ccc(-c3ccccc3[N+](=O)[O-])o2)NC1=O` (stereo unspecified), under setting [1], the AC50 is 23.1 µM [falling, partial curve, poor fit].

For the molecule `COc1ccccc1/C=N/NC(=O)c1ccc(Br)cc1`, the AC50 under setting [1] is 15.8 µM [falling, partial curve, poor fit].

Take `COc1ccc(CNC(=O)C2CCCN(S(=O)(=O)c3cccc4nsnc34)C2)cc1` (stereo unspecified): the AC50 under setting [1] was 15.8 µM [falling, partial curve, poor fit].

Turning to `C[C@H](CO)N1C[C@H](C)[C@@H](CN(C)S(C)(=O)=O)Oc2ccc(NC(=O)CCN3CCOCC3)cc2C1=O`, the AC50 under setting [1] is 25.9 µM [rising, partial curve, poor fit].

Regarding `COc1ccc(OC)c(Nc2nc(-c3cccs3)cs2)c1`, the AC50 under setting [1] was 32.6 µM [falling, single point].

Take `O=C(NCCN1CCN(C(=O)c2cccc(OC(F)F)c2)CC1)c1cccc(OC(F)F)c1`: under setting [1], the AC50 is 2.91 µM [rising, partial curve].

In the case of `O=C(Nc1ccc2c(c1)nc1n2CCOC1)c1ccco1`, under setting [1], the AC50 was 11.2 µM [falling, partial curve, poor fit].

For the molecule `N#CC/C(N)=N/NC(=O)CCCNc1ncc(C(F)(F)F)cc1Cl`, the AC50 under setting [1] was 35.5 µM [falling, single point].

For the molecule `CN(C)CCNc1ncnc2c1cnn2-c1cccc(Cl)c1`, the AC50 under setting [1] is 20 µM [falling, single point].

Turning to `COc1ccc(CCNC(=O)CSc2nnnn2-c2ccc(OC)c(OC)c2)cc1OC`, the AC50 under setting [1] was 8.91 µM [rising, single point].

For `CCOC(=O)c1c(C)n(C)c2ccc(O)c(CN3CCC(C)CC3)c12`, the AC50 under setting [1] is 0.731 µM [falling, partial curve, poor fit].

For the molecule `Oc1[nH]c2ccccc2c1N=Nc1c(F)c(F)c(C(F)(F)F)c(F)c1F`, under setting [1], the AC50 is 0.501 µM [rising, full curve, poor fit].

On to `CC(=O)Nc1cccc(C(=O)OCC(=O)NC(=O)c2ccccc2)c1`, for which the AC50 under setting [1] was 29.1 µM [rising, partial curve, poor fit].

Take `O=C1c2ccccc2C(=O)N1OCCOCCOCCON1C(=O)c2ccccc2C1=O`: under setting [1], the AC50 is 29.1 µM [rising, single point].

Consider `CCN(C(=O)CSc1ncnc2sc(C)c(C)c12)C1CCS(=O)(=O)C1` (stereo unspecified), for which, under setting [1], the AC50 is 35.5 µM [falling, single point].

Consider `Cc1c(C(=O)Nc2ccc(C(=O)O)cc2)nnn1-c1ccccc1`, for which the AC50 under setting [1] was 2.82 µM [falling, full curve].

Regarding `Cc1ccc(N=Nc2c(O)[nH]c(=O)[nH]c2=O)cc1S(=O)(=O)Nc1ccc(Br)cc1`, under setting [1], the AC50 is 16.4 µM [falling, partial curve, poor fit].

As to `c1ccc(CC2CCN(c3nc4ccccc4n4cnnc34)CC2)cc1`, the AC50 under setting [1] is 3.26 µM [rising, full curve].

Take `O=C(CC1Nc2ccccc2NC1=O)Nc1ccc2c(c1)OCO2` (stereo unspecified): the AC50 under setting [1] was 17.8 µM [falling, partial curve, poor fit].

As for `O=C(Nc1cc(Cl)ccc1Oc1ccccc1)c1ccccc1F`, the AC50 under setting [1] is 18.4 µM [rising, partial curve, poor fit].

As for `Cc1cccc2cc(C#N)c(NCCNS(=O)(=O)c3ccc4c(c3)OCCO4)nc12`, the AC50 under setting [1] was 22.4 µM [falling, single point].

Take `O=C(O)c1cccc(N/N=C/c2ccc(F)c(F)c2)c1`: under setting [1], the AC50 is 35.5 µM [falling, partial curve, poor fit].

For the molecule `N#Cc1ccccc1OCC(=O)NCC1(N2CCCCC2)CCCCC1`, the AC50 under setting [1] is 12.6 µM [falling, partial curve].

Take `c1ccc(-c2nnc(NC3=NCCC3)o2)cc1`: the AC50 under setting [1] was 8.91 µM [falling, partial curve].

As for `O=c1[nH]cnc2cc(-c3ccccc3)sc12`, under setting [1], the AC50 was 17.8 µM [falling, single point].

Regarding `CCC(C)Sc1nc2c(c(=O)[nH]c(=O)n2C)n1C` (stereo unspecified), under setting [1], the AC50 is 35.5 µM [rising, partial curve, poor fit].

`CN(C)/C=N/c1nc(-c2ccc3c(c2)OCO3)cs1`: the AC50 under setting [1] was 6.31 µM [rising, single point].

Take `N#Cc1ccc(/C=N/NC(=O)c2cc(-c3cccs3)nc3ccccc23)cc1`: the AC50 under setting [1] was 18.4 µM [rising, partial curve].

On to `COc1ccc(NC(=O)CN2C(=O)COc3ccc(S(=O)(=O)N4CCCCCC4)cc32)cc1`, for which, under setting [1], the AC50 was 3.98 µM [falling, partial curve, poor fit].

As for `Cc1sc(NC(=O)/C=C/c2ccco2)c(C(=O)O)c1C`, under setting [1], the AC50 is 1.58 µM [falling, full curve].

On to `O=C1c2cccc3cccc(c23)C(=O)N1CC1CCN(S(=O)(=O)c2ccc(F)cc2)CC1`, for which, under setting [1], the AC50 is 3.66 µM [rising, partial curve, poor fit].

For the molecule `C=CCn1c(N)c(C(=O)NC2CCCCC2)sc1=S`, the AC50 under setting [1] was 13 µM [falling, partial curve, poor fit].

For the molecule `Cc1ccc(NS(=O)(=O)c2c(C)[nH]c(=O)[nH]c2=O)c(Br)c1`, the AC50 under setting [1] was 7.94 µM [rising, partial curve, poor fit].

Take `Cc1ccc2nc(/C(C#N)=C/c3ccc(-c4cccc([N+](=O)[O-])c4)o3)[nH]c2c1`: the AC50 under setting [1] is 29.1 µM [rising, partial curve, poor fit].

For the molecule `CC(C)(CC(=O)N1CCN(c2ccc(Cl)cc2)CC1)CC1=NS(=O)(=O)c2ccccc2N1`, the AC50 under setting [1] is 35.5 µM [falling, single point].

For the molecule `CCOC(=O)CN1CC23C=CC(O2)C(C(=O)NCc2cccs2)C3C1=O` (stereo unspecified), the AC50 under setting [1] was 32.6 µM [rising, partial curve, poor fit].

For the molecule `CCOc1ccccc1N(CC(=O)NCCc1ccc(OC)c(OC)c1)S(=O)(=O)c1ccccc1`, the AC50 runs as follows: under setting [1], 31.6 µM [rising, single point]; under setting [2], 35.5 µM [falling, single point].

On to `COc1ccc(NC(=O)c2cc(-c3ccc(C)cc3)on2)cc1`, for which the AC50 under setting [1] was 1.41 µM [falling, full curve].

Broadly, the AC50 is the concentration at which the activity in the assay is half-maximal.

Values taken from PubChem BioAssay AID493014 (National Center for Advancing Translational Sciences (NCATS), 2011).
